{"sequences": {"note": "By UniProt entry, the sequences of proteins in these tests, tags left out. Residues count along the entry.", "UniProt Q96EB6, 2-747 limits assumed": "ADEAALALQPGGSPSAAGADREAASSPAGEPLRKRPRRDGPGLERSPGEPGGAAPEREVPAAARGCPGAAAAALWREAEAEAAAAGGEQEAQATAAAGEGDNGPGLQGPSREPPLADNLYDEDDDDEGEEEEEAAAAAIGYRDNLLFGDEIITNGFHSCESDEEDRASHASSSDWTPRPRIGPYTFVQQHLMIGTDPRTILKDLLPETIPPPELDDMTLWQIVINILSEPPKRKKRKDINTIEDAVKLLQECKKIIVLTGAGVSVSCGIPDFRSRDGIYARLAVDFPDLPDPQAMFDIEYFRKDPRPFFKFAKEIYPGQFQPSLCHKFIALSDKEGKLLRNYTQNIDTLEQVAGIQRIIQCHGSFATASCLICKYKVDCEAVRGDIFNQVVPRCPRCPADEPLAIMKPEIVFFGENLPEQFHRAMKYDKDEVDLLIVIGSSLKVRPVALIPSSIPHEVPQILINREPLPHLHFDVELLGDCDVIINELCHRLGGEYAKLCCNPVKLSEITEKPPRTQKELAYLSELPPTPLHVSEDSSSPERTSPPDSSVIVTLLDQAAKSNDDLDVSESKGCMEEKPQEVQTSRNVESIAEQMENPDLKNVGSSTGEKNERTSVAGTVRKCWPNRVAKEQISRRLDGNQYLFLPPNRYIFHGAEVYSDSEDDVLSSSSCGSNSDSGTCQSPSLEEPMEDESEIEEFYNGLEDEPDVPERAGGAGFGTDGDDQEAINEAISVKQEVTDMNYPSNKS"}, "source": "paper PMC6925144", "about": "“A prospective compound screening contest identified broader inhibitors for Sirtuin 1” (Scientific Reports, 2019)", "note": "Over roughly 3,200 compounds, “TSA(with NAD+) / Primary screening (TSA) / delta Tm (K)” has its median near -0.04; the highest 2% begin near 0.37. This is one part of the list.", "data": [{"target": "NAD-dependent deacetylase Sirtuin 1 (human, UniProt Q96EB6)", "experiment": "primary screen, delta tm", "parameters": "single well (n = 1, as 'the same TSA')", "conditions": "10 µM", "units": {"TSA(with NAD+) / Primary screening (TSA) / delta Tm (K)": "K"}, "values": [{"smiles": "O=C(CN1CCN(c2ncnc3ccsc23)CC1)Nc1ccccc1Cl", "TSA(with NAD+) / Primary screening (TSA) / delta Tm (K)": -0.03}, {"smiles": "COc1cccc(C2C(C(=O)c3ccco3)=C(O)C(=O)N2CCCN2CCOCC2)c1", "note": "(stereo not drawn)", "TSA(with NAD+) / Primary screening (TSA) / delta Tm (K)": -0.09}, {"smiles": "CCCN(C(=O)CSc1nnc(NCc2ccco2)s1)C1=CCCCC1", "TSA(with NAD+) / Primary screening (TSA) / delta Tm (K)": 0.15}, {"smiles": "c1ccc2c3c([nH]c2c1)C1(CCCCC1)NCC3", "TSA(with NAD+) / Primary screening (TSA) / delta Tm (K)": 0.01}, {"smiles": "O=C(Cn1cnc2ccccc2c1=O)Nc1ccc(N2CCN(Cc3ccccc3)CC2)cc1", "TSA(with NAD+) / Primary screening (TSA) / delta Tm (K)": -0.16}, {"smiles": "O=c1oc2cc(Cl)ccc2n1Cc1nc(-c2ccco2)no1", "TSA(with NAD+) / Primary screening (TSA) / delta Tm (K)": 0.07}, {"smiles": "CN(c1ccccc1)S(=O)(=O)c1cccc(C(=O)Nc2ccccc2-c2nc3ccccc3[nH]2)c1", "TSA(with NAD+) / Primary screening (TSA) / delta Tm (K)": 0.38}, {"smiles": "Cc1ccc(N(C)S(=O)(=O)c2cccc(C(=O)OC(C)C(N)=O)c2)cc1", "note": "(stereo not drawn)", "TSA(with NAD+) / Primary screening (TSA) / delta Tm (K)": -0.08}, {"smiles": "O=C(NCC(c1ccccc1)c1c[nH]c2ccccc12)C1=COCCO1", "note": "(stereo not drawn)", "TSA(with NAD+) / Primary screening (TSA) / delta Tm (K)": -0.03}, {"smiles": "CCc1sc(C(=O)Nc2cc(C(N)=O)ccc2N2CCCC2)cc1C", "TSA(with NAD+) / Primary screening (TSA) / delta Tm (K)": -0.09}, {"smiles": "NC(=O)c1ccc(Cl)c(NC(=O)c2nn(-c3ccccc3)c3c2CCC3)c1", "TSA(with NAD+) / Primary screening (TSA) / delta Tm (K)": 0.06}, {"smiles": "CCCCn1c(N)c(N(CCOC)C(=O)c2cccc(S(=O)(=O)N(C)c3ccc(C)cc3)c2)c(=O)[nH]c1=O", "TSA(with NAD+) / Primary screening (TSA) / delta Tm (K)": -0.12}, {"smiles": "Cc1ccc(C)c(N2C(=O)c3ccc(C(=O)Nc4ccc(Oc5ncccn5)cc4)cc3C2=O)c1", "TSA(with NAD+) / Primary screening (TSA) / delta Tm (K)": 0.06}, {"smiles": "O=[N+]([O-])c1ccc(/C=C/Br)o1", "TSA(with NAD+) / Primary screening (TSA) / delta Tm (K)": -0.01}, {"smiles": "Cc1c(-c2ccccc2)sc(NC(=O)C2=COCCO2)c1C(=O)N1CCOCC1", "TSA(with NAD+) / Primary screening (TSA) / delta Tm (K)": 0.06}, {"smiles": "CN1C(=O)C(C(=O)c2cn(C)c3ccccc23)C(=O)N(C)C1=O", "TSA(with NAD+) / Primary screening (TSA) / delta Tm (K)": -0.01}, {"smiles": "Cc1ccc(N(C)S(=O)(=O)c2cccc(C(=O)OCc3cc(=O)oc4cc(C)ccc34)c2)cc1", "TSA(with NAD+) / Primary screening (TSA) / delta Tm (K)": 0.06}, {"smiles": "COC(C)C(=O)O", "note": "(stereo not drawn)", "TSA(with NAD+) / Primary screening (TSA) / delta Tm (K)": -0.03}, {"smiles": "CCOc1ccc(NC(=O)CN(C)C(=O)/C=C/c2ccc(S(=O)(=O)N3CCCCCC3)cc2)cc1OCC", "TSA(with NAD+) / Primary screening (TSA) / delta Tm (K)": -0.03}, {"smiles": "Oc1cccc2c1Cc1c-2nc2ccc(Cl)cc2c1-c1ccccc1Cl", "TSA(with NAD+) / Primary screening (TSA) / delta Tm (K)": 0.52}, {"smiles": "O=C(OCc1cc(Cl)ccn1)c1ccc2[nH]c(C(F)F)nc2c1", "TSA(with NAD+) / Primary screening (TSA) / delta Tm (K)": -0.03}, {"smiles": "COc1ccccc1NC(=O)c1ccc(NC(=O)COC(=O)C23CC4CC(CC(C4)C2)C3)cc1", "TSA(with NAD+) / Primary screening (TSA) / delta Tm (K)": 0.39}, {"smiles": "COC(=O)NC1(C(=O)Nc2cnc3ccccc3n2)CCCC1", "TSA(with NAD+) / Primary screening (TSA) / delta Tm (K)": -0.14}, {"smiles": "NC(=O)C1CCCN1C1CCN(c2ccnc3c(F)cccc23)CC1", "note": "(stereo not drawn)", "TSA(with NAD+) / Primary screening (TSA) / delta Tm (K)": -0.05}, {"smiles": "CC1Cc2ccccc2N1C(=O)c1ccc(Cl)nc1Cl", "note": "(stereo not drawn)", "TSA(with NAD+) / Primary screening (TSA) / delta Tm (K)": -0.09}, {"smiles": "O=[N+]([O-])c1ccc(CSc2nnc(-c3c[nH]c4ccccc34)n2-c2ccc(Cl)cc2)cc1", "TSA(with NAD+) / Primary screening (TSA) / delta Tm (K)": 0.03}, {"smiles": "Cc1cccc(NC=C2C(=O)NC(=S)NC2=O)n1", "TSA(with NAD+) / Primary screening (TSA) / delta Tm (K)": -0.13}, {"smiles": "O=C(CCCNC(=O)c1cccs1)NNC(=O)COc1ccccc1-c1ccccc1", "TSA(with NAD+) / Primary screening (TSA) / delta Tm (K)": -0.09}, {"smiles": "O=C(NCc1cccnc1N1CCOCC1)C1=COCCO1", "TSA(with NAD+) / Primary screening (TSA) / delta Tm (K)": -0.12}, {"smiles": "CCn1cc(CC(=O)N2CCC(CN3CCCC3)C2)c2ccccc21", "note": "(stereo not drawn)", "TSA(with NAD+) / Primary screening (TSA) / delta Tm (K)": -0.06}, {"smiles": "CCCOc1ccc(C(=O)C2=C(O)C(=O)N(CCN3CCOCC3)C2c2ccc([N+](=O)[O-])cc2)cc1", "note": "(stereo not drawn)", "TSA(with NAD+) / Primary screening (TSA) / delta Tm (K)": -0.13}, {"smiles": "CCCNC(=O)CSc1nnc(-c2c[nH]c3ccccc23)n1Cc1ccco1", "TSA(with NAD+) / Primary screening (TSA) / delta Tm (K)": 0.05}, {"smiles": "COc1ccc(N(C)S(=O)(=O)c2cccc(C(=O)Nc3ccc(Br)cc3F)c2)cc1", "TSA(with NAD+) / Primary screening (TSA) / delta Tm (K)": 0.36}, {"smiles": "O=C(O)c1ccc2c(=O)n3c(nc2c1)/C(=C\\c1cccc(O)c1)CC3", "TSA(with NAD+) / Primary screening (TSA) / delta Tm (K)": 0.05}, {"smiles": "CC(C)c1ccc2c(c1)CCCN2C(=O)CCn1cnc2ccccc2c1=O", "TSA(with NAD+) / Primary screening (TSA) / delta Tm (K)": -0.11}, {"smiles": "COc1cc(C=C2C(=O)NC(=S)NC2=O)cc(Br)c1OC", "TSA(with NAD+) / Primary screening (TSA) / delta Tm (K)": -0.11}, {"smiles": "CCC(N)CC", "TSA(with NAD+) / Primary screening (TSA) / delta Tm (K)": -0.11}, {"smiles": "CCCCN(C(=O)c1cccc(S(=O)(=O)N(C)c2ccc(C)cc2)c1)c1c(N)n(CC(C)C)c(=O)[nH]c1=O", "TSA(with NAD+) / Primary screening (TSA) / delta Tm (K)": -0.14}, {"smiles": "CC1(c2cccc(N)c2)NC(=O)NC1=O", "note": "(stereo not drawn)", "TSA(with NAD+) / Primary screening (TSA) / delta Tm (K)": 0.02}, {"smiles": "Cn1c(SCc2ccc(F)cc2)nc2ccsc2c1=O", "TSA(with NAD+) / Primary screening (TSA) / delta Tm (K)": -0.23}, {"smiles": "CC1CCc2sc(C(=O)Nc3ccccc3Cc3ccccc3)cc2C1", "note": "(stereo not drawn)", "TSA(with NAD+) / Primary screening (TSA) / delta Tm (K)": -0.13}, {"smiles": "Cc1ccc(-c2n[nH]cc2CNCc2ccc(CN(C)C)cc2)cc1", "TSA(with NAD+) / Primary screening (TSA) / delta Tm (K)": -0.08}, {"smiles": "NC(=O)c1cc(NCC(=O)Nc2ccccc2Cl)c(F)cc1F", "TSA(with NAD+) / Primary screening (TSA) / delta Tm (K)": -0.08}, {"smiles": "c1ccc(-c2nc(CN3CCN(c4ncnc5sc6c(c45)CCCC6)CC3)cs2)cc1", "TSA(with NAD+) / Primary screening (TSA) / delta Tm (K)": 0.06}, {"smiles": "CCNCCOCCN", "TSA(with NAD+) / Primary screening (TSA) / delta Tm (K)": -0.24}]}]}
